For some assays here: The same purity stands for every peptide and may come from a single statement.
How the values were obtained:
[1] = general procedure: Fmoc solid-phase peptide synthesis; 2-Cl-Trt resin (degree of substitution 0.5 mmol/g); details: whole synthesis; for final HPLC purity: HPLC area integration
[2] = general procedure: Fmoc solid-phase peptide synthesis; 2-Cl-Trt resin; details: whole synthesis, scale 0.5 mmol
[3] = scale of the general procedure 0.5 mmol
[4] = on 0.5 mmol 2-Cl-Trt resin used, scale 0.5 mmol
[5] = calculated on the basis of 0.5 mmol 2-Cl-Trt resin used, scale of the general procedure 0.5 mmol

Substance	crude mass [1]	isolated mass [1]	final HPLC purity [1, 3]	isolated yield [1, 4]	crude yield [1, 3]	crude mass [2]	isolated yield [1, 5]
3-oxooctanoyl-Dab-Thr-Dab-ring(4-10) [Dab-Dab-D-Phe-Lue--Dab-Dab-Thr]	540 mg	245 mg	>99.0%	40.7%	89.8%	–	–
4-phenoxybenzoyl-Dab-Thr-Dab-ring (4-10) [Dab-Dab-D-Phe-Lue-Dab-Dab-Thr]	570 mg	280 mg	>99.0%	44.5%	90.5%	–	–
6-methoxyhexanoyl-Dab-Thr-Dab-ring(4-10) [Dab-Dab-D-Phe-Lue-Dab-Dab-Thr]	530 mg	238 mg	>99.0%	40.0%	89.0%	–	–
(S)-6-methyloctanoyl-Dab-Thr-Dab-ring (4-10) [Dab-Dab-D-Phe(4-Cl)-Lue-Dab-Dab-Thr]	560 mg	250 mg	>99.0%	40.4%	90.5%	–	–
(S)-6-methyloctanoyl-Dab-Thr-Dab-ring(4-10) [Dab-Dab-D-Phe(4-CH3)-Lue-Dab-Dab-Thr]	550 mg	250 mg	>99.0%	41.1%	90.3%	–	–
N, N-dimethylaminovaleryl-Dab-Thr-Dab-ring(4-10) [Dab-Dab-D-Phe-Lue-Dab-Dab-Thr]	530 mg	240 mg	>99.0%	40.3%	89.1%	–	–
Octanoyl-Dab-Thr-D-Dab-ring(4-10) [Dab-Dab-D-Leu-Thr-Dab-Dab-Thr]	520 mg	248 mg	>99.0%	43.4%	91.0%	–	–
Octanoyl-Dab-Thr-D-Ser-Ring(4-10) [Dab-Dab-D-Leu-Thr-Dab-Dab-Thr]	510 mg	230 mg	>99.0%	40.7%	90.2%	–	–
Octanoyl-Dab-Thr-D-Ser-ring(4-10) [Dab-Dab-D-Phe--Thr-Dab-Dab-Thr]	–	240 mg	>99.0%	–	91.0%	530 mg	41.2%
Octanoyl-Dab-Thr-Dab-rin(4-10) [Dab-Dab-D-Phe-Leu-Dab-Dab-Thr]	540 mg	240 mg	>99.0%	40.4%	90.8%	–	–
Octanoyl-Dab-Thr-Dab-ring(4-10) [Dab-Dab-D-Leu-Leu-Dab-Dab-Thr]	540 mg	240 mg	>99.0%	41.5%	93.5%	–	–
Octanoyl-Dab-Thr-Dab-ring(4-10) [Dab-Dab-D-Leu-Thr--Dab-Dab-Thr]	525 mg	250 mg	>99.0%	43.7%	91.8%	–	–
octanoyl-Dab-Thr-Dab-ring(4-10) [Dab-Dab-D-Phe-Leu--Dab-Dab-Leu]	–	250 mg	>99.0%	–	91.6%	550 mg	41.6%

From patent US20190315806A1 (priority 2016, published 2019)
